Reference: PubChem BioAssay AID504791 (Drosophila RNAi Screening Center, 2011)
The screen tested about 23,000 reagents; below is an unselected part of those with a known target gene and a result. In the full data, 199 (0.86%) were called active. 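Plate-scaled ratios behind the calls are not deposited; printed light signals are raw; many rows marked increased or decreased are still called inactive.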 The numbers tell different reagents against one gene apart. Not stated in the record: the direction of the score.

Aim: 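Factors in Argonaute-based small RNA production and activity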 (primary screen)
System: Drosophila S2-derived reporter cells
Reagents: long dsRNA against Drosophila genes, about 150-250 ng dsRNA per well (siRNA assay); about 80-120 ng (miRNA assay)
Duration: about 5 days (siRNA assay); about 4 days (miRNA assay)
Treatment: copper sulfate induction of reporters: 25 µM (siRNA assay); 200 mM stated (miRNA assay), 1-2 days before reading
Measured: 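Dual luciferase assay: Renilla to firefly signal ratio in each well, scaled to the mean ratio of its plate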
Call rule: 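a well was a first-pass pick when its plate-scaled ratio rose above 1.5 (siRNA assay) or 1.6 (miRNA assay), or dropped below 0.6; a gene counted only if two separate dsRNAs agreed on retest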

Silencing of Chmp1 (GeneID 40036) gave: stable assay Renilla, run 1 (luminescence) = 11843; stable assay firefly, run 1 (luminescence) = 4.23e5; inactive. Knock-down of Pvr (GeneID 34127) resulted in: miRNA reporter change reporter ratio lowered past the hit cutoff; stable assay Renilla, run 1 (luminescence) = 63197; stable assay firefly, run 1 (luminescence) = 4.74e5; inactive. Knock-down of mRpL52 (GeneID 35711) came out at: stable assay Renilla, run 1 (luminescence) = 5724; stable assay firefly, run 1 (luminescence) = 3.80e5; inactive. Against Pgant9 (GeneID 246627) #1, the values are stable assay Renilla, run 1 (luminescence) = 7410; stable assay firefly, run 1 (luminescence) = 4.12e5; inactive. Silencing of Pgant9 (GeneID 246627) #2 resulted in: stable assay Renilla, run 1 (luminescence) = 6828; stable assay firefly, run 1 (luminescence) = 2.89e5; inactive. With knock-down of Pgant9 (GeneID 246627) #3 the results were stable assay Renilla, run 1 (luminescence) = 5686; stable assay firefly, run 1 (luminescence) = 3.74e5; inactive.

Knock-down of Pgant9 (GeneID 246627) #4 came out at: stable assay Renilla, run 1 (luminescence) = 6675; stable assay firefly, run 1 (luminescence) = 3.62e5; inactive. Knock-down of Pgant9 (GeneID 246627) #5 came out at: stable assay Renilla, run 1 (luminescence) = 6022; stable assay firefly, run 1 (luminescence) = 3.65e5; inactive. For Pgant9 (GeneID 246627) #6 the deposit lists stable assay Renilla, run 1 (luminescence) = 7118; stable assay firefly, run 1 (luminescence) = 3.37e5; inactive. Pgant9 (GeneID 246627) #7 gave stable assay Renilla, run 1 (luminescence) = 8181; stable assay firefly, run 1 (luminescence) = 3.67e5; inactive. After knock-down of Pgant9 (GeneID 246627) #8 the results were stable assay Renilla, run 1 (luminescence) = 10178; stable assay firefly, run 1 (luminescence) = 6.86e5; inactive. CG10214 (GeneID 42811) showed stable assay Renilla, run 1 (luminescence) = 10387; stable assay firefly, run 1 (luminescence) = 4.63e5; inactive.

Fad2 (GeneID 44006) showed stable assay Renilla, run 1 (luminescence) = 5036; stable assay firefly, run 1 (luminescence) = 2.26e5; inactive. With knock-down of Es2 (GeneID 31780), the screen gave stable assay Renilla, run 1 (luminescence) = 7198; stable assay firefly, run 1 (luminescence) = 5.28e5; inactive. Knock-down of CG12171 (GeneID 40690) gave: stable assay Renilla, run 1 (luminescence) = 7651; stable assay firefly, run 1 (luminescence) = 5.17e5; inactive. shakB (GeneID 33062) #1 scored stable assay Renilla, run 1 (luminescence) = 7727; stable assay firefly, run 1 (luminescence) = 6.70e5; inactive. shakB (GeneID 33062) #2 gave stable assay Renilla, run 1 (luminescence) = 5404; stable assay firefly, run 1 (luminescence) = 3.96e5; inactive. Against shakB (GeneID 33062) #3, the entry reads stable siRNA reporter change reporter ratio raised past the hit cutoff; stable assay Renilla, run 1 (luminescence) = 1540; stable assay firefly, run 1 (luminescence) = 60126; inactive.

Against betaCOP (GeneID 32820), the values are stable assay Renilla, run 1 (luminescence) = 6051; stable assay firefly, run 1 (luminescence) = 3.13e5; inactive. With knock-down of Oatp58Db (GeneID 37544), the screen gave stable assay Renilla, run 1 (luminescence) = 7586; stable assay firefly, run 1 (luminescence) = 5.19e5; inactive. For Lgr1 (GeneID 42133), the entry reads stable assay Renilla, run 1 (luminescence) = 7384; stable assay firefly, run 1 (luminescence) = 4.55e5; inactive.

Looked up above:
Pgant9 (GeneID 246627) #3, stable assay firefly, run 1 (luminescence) → 3.74e5
Under “stable assay firefly, run 1 (luminescence)”, CG10214 (GeneID 42811) is entered as 4.63e5

Further entries follow.
Against CG34354 (GeneID 5740528) #1, the entry reads stable assay Renilla, run 1 (luminescence) = 6491; stable assay firefly, run 1 (luminescence) = 4.93e5; inactive. CG34354 (GeneID 5740528) #2 gave stable assay Renilla, run 1 (luminescence) = 4938; stable assay firefly, run 1 (luminescence) = 2.52e5; inactive. Knock-down of CG34354 (GeneID 5740528) #3 came out at: stable siRNA reporter change reporter ratio raised past the hit cutoff; stable assay Renilla, run 1 (luminescence) = 5871; stable assay firefly, run 1 (luminescence) = 2.09e5; inactive. Against CG34354 (GeneID 5740528) #4, the values are stable assay Renilla, run 1 (luminescence) = 6691; stable assay firefly, run 1 (luminescence) = 3.95e5; inactive. Depletion of CG34354 (GeneID 5740528) #5 came out at: stable assay Renilla, run 1 (luminescence) = 4159; stable assay firefly, run 1 (luminescence) = 3.34e5; inactive. For RpS15 (GeneID 36851), the values are miRNA reporter change reporter ratio lowered past the hit cutoff; stable assay Renilla, run 1 (luminescence) = 7468; stable assay firefly, run 1 (luminescence) = 3.49e5; active.

After knock-down of wrm1 (GeneID 38810) the results were stable assay Renilla, run 1 (luminescence) = 6816; stable assay firefly, run 1 (luminescence) = 3.57e5; inactive. With knock-down of CG11357 (GeneID 38561) the results were stable assay Renilla, run 1 (luminescence) = 6364; stable assay firefly, run 1 (luminescence) = 4.64e5; inactive. With knock-down of Cht10 (GeneID 3355116) #1, the record shows stable assay Renilla, run 1 (luminescence) = 7591; stable assay firefly, run 1 (luminescence) = 4.27e5; inactive. Against Cht10 (GeneID 3355116) #2, the values are stable assay Renilla, run 1 (luminescence) = 1.23e5; stable assay firefly, run 1 (luminescence) = 2.84e5; inactive. Cht10 (GeneID 3355116) #3 scored stable assay Renilla, run 1 (luminescence) = 7586; stable assay firefly, run 1 (luminescence) = 4.29e5; inactive. Targ2 (GeneID 326246) showed stable assay Renilla, run 1 (luminescence) = 9010; stable assay firefly, run 1 (luminescence) = 6.97e5; inactive.

With knock-down of Lipt1 (GeneID 36795) #1, the record shows stable assay Renilla, run 1 (luminescence) = 5546; stable assay firefly, run 1 (luminescence) = 4.03e5; inactive. Lipt1 (GeneID 36795) #2 gave stable assay Renilla, run 1 (luminescence) = 8229; stable assay firefly, run 1 (luminescence) = 3.06e5; inactive.
